The list shows a part of the results. The calls rarely recur for the same compound in another form.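 In K562 cells expressing nanoluciferase-fused kinases, luminescence was recorded at 4 h intervals between 2 and 18 h, normalized as percent of control with DMSO at 100% and a positive control at 0%. A significant (2 sigma) signal drop marks a time point as decreased. The authors' rule for a hit is not shown and takes in more than the number of time points.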
What was measured:
Test in all cases: kinase-Nluc reporter destabilization hit call (1 = scored as downregulated) (binary); higher = compound decreases kinase abundance
Conditions in all cases: K562, 2-18 h
CDK7 = CDK7 (UniProt P50613)
CDK9 = CDK9 (UniProt P50750)
CHEK2 = CHEK2 (UniProt O96017)
CSF1R = CSF1R (UniProt P07333)
CSK = CSK (UniProt P41240)
CSNK1A1 = CSNK1A1 (UniProt P48729)
CSNK1D = CSNK1D (UniProt P48730)
DDR1 = DDR1 (UniProt Q08345)
DYRK1B = DYRK1B (UniProt Q9Y463)
DYRK2 = DYRK2 (UniProt Q92630)

Sequences of proteins named here, by UniProt entry; tags and fusion partners are left off. A change or cut given only in a name is not applied to a line headed by its entry.
UniProt P50613: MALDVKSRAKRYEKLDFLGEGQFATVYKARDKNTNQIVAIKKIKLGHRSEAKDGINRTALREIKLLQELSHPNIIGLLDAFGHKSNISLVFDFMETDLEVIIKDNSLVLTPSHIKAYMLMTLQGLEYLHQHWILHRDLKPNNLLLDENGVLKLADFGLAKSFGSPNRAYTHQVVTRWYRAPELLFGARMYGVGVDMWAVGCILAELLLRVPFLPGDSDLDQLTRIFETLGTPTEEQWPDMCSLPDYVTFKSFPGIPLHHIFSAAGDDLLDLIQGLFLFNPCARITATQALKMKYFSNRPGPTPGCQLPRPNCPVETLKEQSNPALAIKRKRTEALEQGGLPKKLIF
UniProt P50750, whole entry: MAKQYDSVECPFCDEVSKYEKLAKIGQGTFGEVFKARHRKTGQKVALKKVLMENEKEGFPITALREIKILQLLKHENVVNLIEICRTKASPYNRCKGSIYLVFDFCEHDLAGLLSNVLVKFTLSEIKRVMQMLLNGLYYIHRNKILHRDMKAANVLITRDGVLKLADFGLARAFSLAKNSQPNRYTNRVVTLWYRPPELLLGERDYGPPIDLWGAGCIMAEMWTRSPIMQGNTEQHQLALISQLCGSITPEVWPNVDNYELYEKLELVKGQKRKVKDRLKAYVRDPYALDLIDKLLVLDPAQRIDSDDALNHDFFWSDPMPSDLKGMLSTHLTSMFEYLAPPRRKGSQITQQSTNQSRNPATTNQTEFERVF
UniProt O96017, whole entry: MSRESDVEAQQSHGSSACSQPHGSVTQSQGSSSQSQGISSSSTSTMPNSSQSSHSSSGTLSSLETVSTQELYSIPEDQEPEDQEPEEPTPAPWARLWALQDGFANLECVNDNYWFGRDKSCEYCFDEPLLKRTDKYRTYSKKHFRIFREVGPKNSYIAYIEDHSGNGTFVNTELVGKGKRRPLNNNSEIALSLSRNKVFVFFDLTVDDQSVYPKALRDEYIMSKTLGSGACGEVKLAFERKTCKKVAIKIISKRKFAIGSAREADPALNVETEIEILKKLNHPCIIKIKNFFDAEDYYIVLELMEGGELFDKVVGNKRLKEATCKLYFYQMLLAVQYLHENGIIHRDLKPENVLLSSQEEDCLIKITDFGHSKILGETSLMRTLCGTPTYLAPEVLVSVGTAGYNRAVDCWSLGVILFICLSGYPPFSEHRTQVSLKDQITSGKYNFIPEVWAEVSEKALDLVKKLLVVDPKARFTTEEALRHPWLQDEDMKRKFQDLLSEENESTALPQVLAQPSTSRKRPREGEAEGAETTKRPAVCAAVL
UniProt P07333, whole entry: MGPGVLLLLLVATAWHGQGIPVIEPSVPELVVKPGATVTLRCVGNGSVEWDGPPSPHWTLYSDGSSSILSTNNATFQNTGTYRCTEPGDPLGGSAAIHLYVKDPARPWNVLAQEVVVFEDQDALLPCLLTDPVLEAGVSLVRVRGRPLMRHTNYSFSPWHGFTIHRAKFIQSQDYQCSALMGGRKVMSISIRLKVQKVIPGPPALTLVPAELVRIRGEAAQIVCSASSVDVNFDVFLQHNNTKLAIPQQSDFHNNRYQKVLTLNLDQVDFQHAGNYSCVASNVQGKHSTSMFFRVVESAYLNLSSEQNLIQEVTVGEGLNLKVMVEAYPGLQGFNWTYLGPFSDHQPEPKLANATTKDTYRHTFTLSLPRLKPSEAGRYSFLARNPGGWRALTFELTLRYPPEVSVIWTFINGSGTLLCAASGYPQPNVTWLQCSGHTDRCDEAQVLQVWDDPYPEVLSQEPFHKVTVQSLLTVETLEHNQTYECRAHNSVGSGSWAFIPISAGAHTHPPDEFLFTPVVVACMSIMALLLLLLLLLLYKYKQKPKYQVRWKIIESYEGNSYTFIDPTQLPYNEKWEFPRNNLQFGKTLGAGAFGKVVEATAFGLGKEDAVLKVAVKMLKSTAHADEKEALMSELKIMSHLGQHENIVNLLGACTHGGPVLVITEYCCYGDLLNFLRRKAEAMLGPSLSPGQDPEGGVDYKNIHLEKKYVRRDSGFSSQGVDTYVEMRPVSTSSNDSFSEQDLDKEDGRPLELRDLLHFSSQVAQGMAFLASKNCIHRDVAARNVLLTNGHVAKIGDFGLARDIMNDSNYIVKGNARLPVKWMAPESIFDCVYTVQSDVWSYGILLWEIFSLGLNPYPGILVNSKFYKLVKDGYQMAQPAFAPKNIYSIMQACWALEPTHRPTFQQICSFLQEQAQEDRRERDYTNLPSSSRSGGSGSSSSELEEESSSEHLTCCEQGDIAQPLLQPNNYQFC
UniProt P41240: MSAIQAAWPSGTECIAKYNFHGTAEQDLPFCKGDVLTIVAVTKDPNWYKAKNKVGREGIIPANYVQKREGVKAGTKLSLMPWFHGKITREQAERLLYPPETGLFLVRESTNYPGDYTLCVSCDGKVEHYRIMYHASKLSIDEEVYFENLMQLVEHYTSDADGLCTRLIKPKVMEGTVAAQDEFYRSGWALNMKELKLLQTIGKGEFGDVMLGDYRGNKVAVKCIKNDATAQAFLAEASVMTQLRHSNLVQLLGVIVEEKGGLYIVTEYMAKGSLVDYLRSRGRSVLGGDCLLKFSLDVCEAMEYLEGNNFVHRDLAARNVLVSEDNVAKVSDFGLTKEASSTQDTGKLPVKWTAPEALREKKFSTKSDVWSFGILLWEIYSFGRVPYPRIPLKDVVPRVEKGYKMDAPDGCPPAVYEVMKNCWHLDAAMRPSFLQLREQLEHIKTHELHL
UniProt P48729: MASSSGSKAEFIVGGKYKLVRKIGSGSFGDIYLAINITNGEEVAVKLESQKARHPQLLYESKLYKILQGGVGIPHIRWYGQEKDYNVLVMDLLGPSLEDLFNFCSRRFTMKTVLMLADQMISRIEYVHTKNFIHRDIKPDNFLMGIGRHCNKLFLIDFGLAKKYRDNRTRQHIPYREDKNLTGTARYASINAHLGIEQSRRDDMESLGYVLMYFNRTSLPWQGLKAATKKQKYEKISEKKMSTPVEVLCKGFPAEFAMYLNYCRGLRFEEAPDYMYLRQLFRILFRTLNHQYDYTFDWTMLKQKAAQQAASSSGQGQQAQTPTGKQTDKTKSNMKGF
UniProt P48730: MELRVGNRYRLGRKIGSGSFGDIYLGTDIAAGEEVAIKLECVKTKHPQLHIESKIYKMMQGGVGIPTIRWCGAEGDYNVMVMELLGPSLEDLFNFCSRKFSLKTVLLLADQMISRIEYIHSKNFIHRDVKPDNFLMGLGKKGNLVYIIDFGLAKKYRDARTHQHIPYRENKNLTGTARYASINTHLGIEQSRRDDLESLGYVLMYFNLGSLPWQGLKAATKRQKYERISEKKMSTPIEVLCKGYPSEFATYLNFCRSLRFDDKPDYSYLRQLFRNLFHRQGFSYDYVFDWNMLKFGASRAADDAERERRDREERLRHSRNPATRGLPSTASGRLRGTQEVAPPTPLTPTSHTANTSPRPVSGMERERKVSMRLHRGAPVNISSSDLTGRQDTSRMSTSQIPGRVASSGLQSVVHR
UniProt Q08345: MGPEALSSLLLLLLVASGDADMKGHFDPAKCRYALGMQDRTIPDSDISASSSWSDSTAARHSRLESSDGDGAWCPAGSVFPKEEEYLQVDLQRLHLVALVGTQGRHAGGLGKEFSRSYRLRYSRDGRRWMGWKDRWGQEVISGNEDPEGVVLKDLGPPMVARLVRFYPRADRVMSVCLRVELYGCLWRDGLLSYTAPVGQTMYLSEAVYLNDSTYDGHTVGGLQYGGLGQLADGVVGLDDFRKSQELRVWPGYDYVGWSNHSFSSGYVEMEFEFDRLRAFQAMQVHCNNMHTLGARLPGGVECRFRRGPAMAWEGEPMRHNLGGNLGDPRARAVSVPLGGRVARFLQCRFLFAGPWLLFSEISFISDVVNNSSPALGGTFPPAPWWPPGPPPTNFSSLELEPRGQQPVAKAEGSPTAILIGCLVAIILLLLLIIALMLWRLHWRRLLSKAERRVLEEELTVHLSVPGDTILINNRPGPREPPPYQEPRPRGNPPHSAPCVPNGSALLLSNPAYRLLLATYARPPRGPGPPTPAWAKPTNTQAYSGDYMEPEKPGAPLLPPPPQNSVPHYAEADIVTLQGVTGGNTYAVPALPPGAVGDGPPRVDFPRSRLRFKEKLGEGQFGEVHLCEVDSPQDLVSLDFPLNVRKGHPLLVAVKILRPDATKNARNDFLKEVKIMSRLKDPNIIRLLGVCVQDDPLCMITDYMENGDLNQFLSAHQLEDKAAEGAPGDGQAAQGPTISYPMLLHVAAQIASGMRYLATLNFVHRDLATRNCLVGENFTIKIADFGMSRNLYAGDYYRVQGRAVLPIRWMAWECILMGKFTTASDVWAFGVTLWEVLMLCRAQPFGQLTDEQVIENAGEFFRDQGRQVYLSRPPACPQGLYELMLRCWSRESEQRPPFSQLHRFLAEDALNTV
UniProt Q9Y463, whole entry, looked up: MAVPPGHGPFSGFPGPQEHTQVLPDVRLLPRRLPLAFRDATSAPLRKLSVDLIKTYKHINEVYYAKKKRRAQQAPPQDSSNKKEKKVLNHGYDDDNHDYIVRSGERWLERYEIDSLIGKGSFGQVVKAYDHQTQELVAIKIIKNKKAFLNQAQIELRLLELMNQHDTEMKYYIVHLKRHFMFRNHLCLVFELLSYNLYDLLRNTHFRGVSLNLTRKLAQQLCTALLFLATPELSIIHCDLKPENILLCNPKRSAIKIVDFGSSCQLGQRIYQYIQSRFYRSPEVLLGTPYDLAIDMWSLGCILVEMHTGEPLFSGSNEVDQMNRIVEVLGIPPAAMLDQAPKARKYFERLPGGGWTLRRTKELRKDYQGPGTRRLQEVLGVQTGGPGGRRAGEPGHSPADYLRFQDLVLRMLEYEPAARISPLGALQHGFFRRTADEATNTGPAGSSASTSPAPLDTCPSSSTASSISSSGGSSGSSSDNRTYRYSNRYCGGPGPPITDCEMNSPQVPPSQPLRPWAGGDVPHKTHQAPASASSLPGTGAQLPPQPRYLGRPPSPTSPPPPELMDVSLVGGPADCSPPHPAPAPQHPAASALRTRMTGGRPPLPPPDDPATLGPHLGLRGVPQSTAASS
UniProt Q92630: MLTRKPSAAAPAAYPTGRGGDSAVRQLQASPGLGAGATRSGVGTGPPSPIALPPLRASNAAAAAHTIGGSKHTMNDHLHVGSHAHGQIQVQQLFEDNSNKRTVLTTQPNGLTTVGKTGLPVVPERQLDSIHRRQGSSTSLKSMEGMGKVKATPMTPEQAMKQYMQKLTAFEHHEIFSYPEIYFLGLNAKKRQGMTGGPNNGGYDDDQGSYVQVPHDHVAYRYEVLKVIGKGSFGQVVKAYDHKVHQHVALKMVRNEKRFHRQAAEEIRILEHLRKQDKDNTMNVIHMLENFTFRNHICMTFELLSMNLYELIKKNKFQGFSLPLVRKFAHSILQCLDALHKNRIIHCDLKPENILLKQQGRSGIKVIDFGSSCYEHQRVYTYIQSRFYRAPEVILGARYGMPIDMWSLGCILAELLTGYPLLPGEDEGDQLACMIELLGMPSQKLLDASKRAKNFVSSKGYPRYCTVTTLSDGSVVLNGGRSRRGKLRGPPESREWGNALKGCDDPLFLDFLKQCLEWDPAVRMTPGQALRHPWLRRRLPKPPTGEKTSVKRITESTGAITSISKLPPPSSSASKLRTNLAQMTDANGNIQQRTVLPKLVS

Measured: kinase-Nluc reporter destabilization hit call

C=CC(=O)Nc1cc(Nc2nccc(-c3cn(C4CC4)c4ccccc34)n2)c(OC)cc1N(C)CCN(C)C [Almonertinib]
inactive: CDK7; 2.5 µM 0 | CDK9; 2.5 µM 0 | CHEK2; 2.5 µM 0 | CSF1R; 2.5 µM 0 | CSK; 2.5 µM 0 | CSNK1A1; 2.5 µM 0 | CSNK1D; 2.5 µM 0 | DDR1; 2.5 µM 0 | DYRK1B; 2.5 µM 0 | DYRK2; 2.5 µM 0

N#CCC1(n2cc(-c3ncnc4[nH]ccc34)cn2)CN(C2CCN(C(=O)c3ccnc(C(F)(F)F)c3F)CC2)C1 [Itacitinib adipate]
inactive: CDK7; 10 µM 0 | CDK9; 10 µM 0 | CHEK2; 10 µM 0 | CSF1R; 10 µM 0 | CSK; 10 µM 0 | CSNK1A1; 10 µM 0 | CSNK1D; 10 µM 0 | DDR1; 10 µM 0 | DYRK1B; 10 µM 0 | DYRK2; 10 µM 0

C[C@@H](N)[C@H]1CC[C@H](C(=O)Nc2ccncc2)CC1
inactive: CDK7; 10 µM 0 | CDK9; 10 µM 0 | CHEK2; 10 µM 0 | CSF1R; 10 µM 0 | CSK; 10 µM 0 | CSNK1A1; 10 µM 0 | CSNK1D; 10 µM 0 | DDR1; 10 µM 0 | DYRK1B; 10 µM 0 | DYRK2; 10 µM 0

CC(C)(C)n1nc(-c2cccc3ccccc23)c2c(N)ncnc21 [1-Naphthyl PP1]
inactive: CDK7; 10 µM 0 | CDK9; 10 µM 0 | CHEK2; 10 µM 0 | CSF1R; 10 µM 0 | CSK; 10 µM 0 | CSNK1A1; 10 µM 0 | DDR1; 10 µM 0 | DYRK1B; 10 µM 0 | DYRK2; 10 µM 0

C#Cc1cccc(Nc2ncnc3cc(OCCOC)c(OCCO)cc23)c1 [Desmethyl Erlotinib]
inactive: CDK7; 10 µM 0 | CDK9; 10 µM 0 | CHEK2; 10 µM 0 | CSF1R; 10 µM 0 | CSK; 10 µM 0 | CSNK1A1; 10 µM 0 | CSNK1D; 10 µM 0 | DDR1; 10 µM 0 | DYRK1B; 10 µM 0 | DYRK2; 10 µM 0
